Test results published in article PMC5618690, “Structural and functional analysis of two small leucine-rich repeat proteoglycans, fibromodulin and chondroadherin” (Matrix Biology, 2017).
No constants are given. Whether binding was seen depends on the method and setting. Binding calls can cover weak binding; strength is not graded here.

Molecular target: acid-solubilized collagen II
Test: ELISA; inhibition: collagen II coated at 10 μg/ml; 10 μg/ml biotinylated chondroadherin pre-incubated 1 h with II-26 or III-8 at 50, 100, 200, 400 μg/ml; both purified

binding: binds
B1: biotinylated human chondroadherin (protein, UniProt O15335 23-359)
chain: APLACPQNCHCHSDLQHVICDKVGLQKIPKVSEKTKLLNLQRNNFPVLAANSFRAMPNLVSLHLQHCQIREVAAGAFRGLKQLIYLYLSHNDIRVLRAGAFDDLTELTYLYLDHNKVTELPRGLLSPLVNLFILQLNNNKIRELRAGAFQGAKDLRWLYLSENALSSLQPGALDDVENLAKFHVDRNQLSSYPSAALSKLRVVEELKLSHNPLKSIPDNAFQSFGRYLETLWLDNTNLEKFSDGAFLGVTTLKHVHLENNRLNQLPSNFPFDSLETLALTNNPWKCTCQLRGLRRWLEAKASRPDATCASPAKFKGQHIRDTDAFRSCKFPTKRSKKAGRH
modifications: biotin (EZ-link reagent), sites not stated
